Test results from patent US20150232556A1.
Results are given in words; binding and its absence hold for the method and conditions named. Some results given as binding are weak or reduced against the parent protein; the word gives no strength.

Amino acid sequences for entries named in this document (tags omitted). A change or cut given only in a name is not applied to a line headed by its entry. Residues count along the entry.
UniProt P43630, residues 22-455: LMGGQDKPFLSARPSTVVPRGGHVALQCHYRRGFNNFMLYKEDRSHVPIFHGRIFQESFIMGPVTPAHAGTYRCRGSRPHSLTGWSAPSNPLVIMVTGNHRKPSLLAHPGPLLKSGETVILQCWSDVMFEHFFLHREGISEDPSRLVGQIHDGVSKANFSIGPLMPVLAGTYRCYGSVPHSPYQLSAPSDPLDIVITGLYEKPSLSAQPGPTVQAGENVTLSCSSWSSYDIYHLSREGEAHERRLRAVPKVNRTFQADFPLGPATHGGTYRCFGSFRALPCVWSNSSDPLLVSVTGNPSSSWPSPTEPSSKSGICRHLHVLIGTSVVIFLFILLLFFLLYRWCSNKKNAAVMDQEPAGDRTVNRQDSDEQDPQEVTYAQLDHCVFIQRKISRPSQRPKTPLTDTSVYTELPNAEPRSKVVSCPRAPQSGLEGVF

Legend:
[1] = molecular target: KIR3DL2 on the HUT78 Sezary cell line (heterozygous for alleles 3DL2*002 and 3DL2*007) (human) (UniProt P43630); experiment: fluorescence microscopy on HUT78 cells, 10 µg/ml antibody
[2] = molecular target: human KIR3DL2 on cells, allele not stated (human) (UniProt P43630); experiment: fresh Sezary Syndrome cells, 24 h at 37° C., goat anti-mouse-PE, flow cytometry
[3] = molecular target: human KIR3DL2 on cells, allele not stated (human) (UniProt P43630); experiment: flow cytometry screens on KIR3DL2-expressing cells
[4] = molecular target: KIR3DL2 on the HUT78 Sezary cell line (heterozygous for alleles 3DL2*002 and 3DL2*007) (human) (UniProt P43630); experiment: flow cytometry on HUT78 cells after 1, 24 or 48 h at 37° C.
[5] = molecular target: KIR3DL2 on the HUT78 Sezary cell line (heterozygous for alleles 3DL2*002 and 3DL2*007) (human) (UniProt P43630); experiment: flow cytometry on HUT78 cells
[6] = molecular target: KIR3DL2 on the HUT78 Sezary cell line (heterozygous for alleles 3DL2*002 and 3DL2*007) (human) (UniProt P43630); experiment: flow cytometry on HUT78 cells, dose range 0.0005 to 30 µg/ml, anti-human-Fc PE
[7] = molecular target: KIR3DL2 on the HUT78 Sezary cell line (heterozygous for alleles 3DL2*002 and 3DL2*007) (human) (UniProt P43630); experiment: flow cytometry on HUT78 cells after 20 h at 37° C.
[8] = molecular target: KIR3DL2 mutant M1 + 2A2 (Q56S; E57A) (human) (UniProt P43630); experiment: binding to HEK-293T cells transfected with KIR3DL2 mutant
[9] = molecular target: KIR3DL2 Domain 0 expressed on HEK-293T cells (human) (UniProt P43630); experiment: flow cytometry screen, HEK-293T/KIR3DL2 Domain 0-eGFP

Measured: binding

B1: antibody 1C3 (antibody, V domains shown)
VH: QVQLQQSGAELARPGASVKLSCKASGYTFTSYWMQWVKQRPGQGLEWIGAIYPGDGDTRYTQKFKGKATLTADKSSSTAYMQLSSLASEDSAVYYCARRYDGYYHFDYWGQGTTLTVS
VL: DIVMTQSPSSLAVTAGEKVTMSCKSSQSLLWSVNQKNYLSWYQQKQRQPPKLLIYGASIRESWVPDRFTGSGSGTDFTLTISNVHAEDLAVYYCQHNHGSFLPLTFGSGTKLEIK
binds: [1] | [2] | [3]

B2: antibody 2B12 (human IgG1) (antibody, V domains shown)
VH: QIQLVQSGPELKKPGETVRISCKASGYTFTTAGMQWVQKTPGKGLKWIGWINSHSGVPKYAEDFKGRFAFSLETSASTAYLQISTLKNEDTATYFCARGGDEGVMDYWGQGTSVTVS
VL: DIVMTQSHKFMSTSLGDRVSFTCKASQDVSTAVAWYQQKPGQSPKLLIYWTSTRHTGVPDRFTGSGSGTDYTLTISSVQAEDLALYYCQQHYSTPWTFGGGTKLEIK
binds: [4] | [5] | [6] | [7]

B3: antibody 10F6 (antibody, V domains shown)
VH: QIQLVQSGPELKKPGETVRISCKASGYTFTIAGMQWVQKMPGKGLKWIGWINTHSGVPKYAEDFKGRFAFSLETSANIAYLQISNLKNEDTATYFCARGGDEGVMDYWGQGTSVTVS
VL: DIVMTQSHKFMSTSVGDRVSITCKASQDVSTAVAWYHQKPGQSPKLLIYWASTRHTGVPDRFSGSGSGTDYTLTISALQAEDLALYYCQQHYNTPWTFGGGTKLEIK
binds: [1] | [2] | [8] | [9]

B4: antibody 2B12 (antibody, V domains shown)
VH: QIQLVQSGPELKKPGETVRISCKASGYTFTTAGMQWVQKTPGKGLKWIGWINSHSGVPKYAEDFKGRFAFSLETSASTAYLQISTLKNEDTATYFCARGGDEGVMDYWGQGTSVTVS
VL: DIVMTQSHKFMSTSLGDRVSFTCKASQDVSTAVAWYQQKPGQSPKLLIYWTSTRHTGVPDRFTGSGSGTDYTLTISSVQAEDLALYYCQQHYSTPWTFGGGTKLEIK
binds: [1] | [2] | [8] | [9]

B5: antibody 20E9 (antibody, V domains shown)
VH: QVQLQQSGAEVARPGASVKLSCKSSGFTFTTYWMQWVKQRPGQGLEWIGAIYPGDGDTRYTQKFKGKATLTADKSSITAYMQLSSLASEDSAVYYCARRGDYGNYGMDYWGQGTSVTVSS
VL: DVLMTQTPLSLPVSLGDQASISCRSSQSIVHSNGNTYLEWYLQKPGQSPKLLIYKVSNHFSGVPDRFSGSGSGTDFTLKISRVEAEDLGVYYCFQGSHVPPTFGGGTKLEIK
binds: [1] | [2] | [3]

B6: antibody 10G5 (antibody, V domains shown)
VH: QVQLQQSAAELARPGASVKMSCKASGYTFTSYTMHWVKQRPGQGLEWIGYINPSSGYTENNRKFKDKTTLTADKSSSTAYMQLSSLTSEDSAVYYCARLGKGLLPPFDYWGQGTTLTVSS
VL: DIQMTQSPASLSVSVGETVTITCRASENIYSNLAWYQQKQGKSPQLLVYAATNLADGVPSRFSGSGSGTQYSLKINSLQSEDFGSYYCQHFWGTPYTFGGGTKLEIK
binds: [9]
